Source: patent US5882644A, “Monoclonal antibodies specific for the platelet derived growth factor β receptor and methods of use thereof” (Protein Design Labs, Inc., priority 1996, dated 1999)
Residue numbers refer to the chain shown, from its start.

B1: muM4TS.22: murine monoclonal antibody to PDGF-R β, variable regions SEQ ID NOS:2 and 4; epitope in third extracellular domain (antibody, V domains shown)
VL: MRVLAELLGLLLFCFLGVRCDIQMNQSPSSLSASLGDTITITCHASQNINVWLSWYQRKPGNIPKLLIYKASNLHTGVPSRFSGSGSGTGFTLTISSLQPEDIATYYCQQGQSFPFTFGSGTKLEIK
VH: MAVLALLLCLVTFPSCALSQVQLKESGPGLVAPSQSLSITCTVSGFSLTNYAINWVRQPPGQGLEWLGIIWTGGGTSYNSALKSRLSISKDNSKSQVFLKMNSLQTDDTARYYCARTGTRGYFFDYWGQGTTLTVSS
B2: HuM4TS.22: humanized muM4TS.22, human IC4 framework, gamma4 constant region; SEQ ID NOS:6 and 8 (antibody, V domains shown)
VL: B1 VL with N25T, L35V, T38R, I39V, R58Q, N62K, I63A, S120G, L124V
VH: MAVLALLLCLVTFPSCALSQVQLQESGPGLVKPSETLSLTCTVSGFSLTNYAINWVRQPPGKGLEWLGIIWTGGGTSYNSALKSRLTISKDTSKNQVSLKLSSVTAADTAVYYCARTGTRGYFFDYWGQGTLVTVSS
B3: muM4TS.11: murine monoclonal antibody to PDGF-R β, variable regions SEQ ID NOS:10 and 12; epitope in fourth extracellular domain (antibody, V domains shown)
VL: METETLLLWVLLLWVPGSTGDIVLTQSPPSLAVSLGQRATISCRASESVDSYGNSFMHWYQQKPGQPPKLLIYRASNLESGIPARFSGGGSRTDFTLTINPVEADDVATYYCQQSNEDPPTFGGGTKLEIK
VH: MERHWIFLFLFSVTAGVHSQVQLQQSGAEVAKPGASVKMSCKASGYTFTNCWMHWVKQRPGQGLEWIGYINPTTGYSEYNQNFKDKATLTADKSSNTAYIQLSSLTSEDSAVYYCTSNYGHYDWFANWGQGTLVT
B4: HuM4TS.11: humanized muM4TS.11, human III-2R framework, gamma4 constant region; SEQ ID NOS:14 and 16 (antibody, V domains shown)
VL: METDTLLLWVLLLWVPGSTGDIQMTQSPSSLSASVGDRVTITCRASESVDSYGNSFMHWYQQKPGKAPKLLIYRASNLESGIPSRFSGSGSRTDFTLTISSLQPEDVATYYCQQSNEDPPTFGQGTKVEIK
VH: MGWSWIFLFLLSGTAGVHSQVQLVQSGAEVKKPGASVKVSCKASGYTFTNCWMHWVRQAPGQGLEWIGYINPTTGYSEYNQNFKDKATITADKSTSTAYMELSSLRSEDTAVYYCTSNYGHYDWFGNWGQGTLVT

Tested on: PDGF-R β deletion fusion proteins
Experiment: ELISA epitope mapping with PDGF-R β deletion fusion proteins
Format: binding, human
Settings: concluded from deletion protein ELISA
Source text: To localize the binding sites of the M4TS antibodies on the PDGF-R, a series of PDGF-R β deletion mutants, each consisting of one or more adjacent domains of the extracellular portion of the receptor, was constructed by standard methods including PCR. The deletion constructs were each cloned into an expression plasmid (FIG. 13A) where they were fused to the constant region of the human lambda-1 immunoglobulin light chain, to facilitate detection in ELISA. The constructs were as follows (see FIG. 13B):
These PDGF-R β deletion fusion proteins were transiently expressed, by transfecting 10 μg of the respective expression plasmids into approximately 10^7 S194 mouse myeloma cells (ATCC TIB 19) using the DEAE-dextran method in accordance with the method described by Queen et al. (1984) Mol. Cell. Biol. 4:1042. After the transfected cells had died (4-5 days) and been removed by centrifugation, the culture supernatants containing the PDGF-R β deletion proteins were used in ELISA assays, 100 μl/well. First, the relative levels of the various PDGF-R β deletion proteins were measured in an ELISA where the plate was coated with goat anti-human lambda antibody (Tago) and the proteins detected with HRP-conjugated goat anti-human lambda antibody. […] To determine the ability of the antibodies to bind to each deletion protein, an ELISA was performed in which goat anti-human lambda antibody was used to coat the plate, followed by the cell supernatant and then 0.1 μg of the appropriate antibody, and then bound antibody detected with HRP-conjugated goat-anti-mouse Ig or goat-anti-human Ig antibody as appropriate (Tago). As a positive control, purified soluble PDGF-R β (Example 1) was coated directly on certain wells of the plate (denoted D1-5 in FIG. 14).

Molecule	location of binding epitope on PDGF-R β
B1	in the third domain
B2	in the third domain
B3	in the fourth domain
B4	in the fourth domain
